Measurements from US7579336B2, “Pharmaceutical composition comprising temozolomide ester” (Tian Jin Tasly Group Co., Ltd., priority 2004, dated 2009).
Some entries share one result that the patent states for a list of compounds. At least one compound was matched to its structure with a doubt left.

System: HCT-8, A549, MCF-7, Bel7402, BGC-823 and MV3 cancer cell strains
Experiment: MTT reduction assay, summary over the selected cell strains
Type: cell-based, human
Conditions: summary of Table 1 over all selected cell strains
Procedure: The experiment was carried out for methyl TMZ-8-carboxylate, butyl TMZ-8-carboxylate, n-hexyl TMZ-8-carboxylate, and TMZ acid which had been known as an active compound against carcinoma, and used fluorouracil injection (10 ml:0.25 g, purchased from Xudong Pharmaceutical Co. Ltd, the batch number was 000612) as the drug for the positive control. Cancer cell strains used in experiments included HCT-8(human colon carcinoma cells), A549 (human lung carcinoma cells), MCF-7(human breast carcinoma cells), Bel7402 (human liver carcinoma cells), BGC-823(human gastric carcinoma cells) and MV3 (human melanoma cells).
Tetrazolium salt [3-(4,5-dimethylthiazol-2-yl)-2,5-diphenyl-tetrazolium bromide, MTT] reduction assay was used. All the well-grown carcinoma cells were collected, prepared intol 1×10^4/ml cell suspension with the RPMI 1640 culture solution containing 10% calf serum, and inoculated in 96-well culture plate, with 100 uL per well (containing 1000 cancer cells). After 24 hours of culture in 5% CO2 thermos incubator at temperature of 37° C. the drugs were added. Blank control group was established and the drug for the positive control was Fluorouracil. […] After slight agitation, the OD value was measured with BIORAD 550 enzyme labeling instrument at the measuring wavelength of 540 nm and the reference wavelength of 450 nm. […]

SMILES: Cn1nnc2c(C(=O)O)ncn2c1=O [TMZ acid, reference compound]
- IC50 ranges for the selected cell strains: 10˜30 ug/ml
